# Patent US20210130799
# For some of these results: Tags and fusion partners may be left off the protein sequences shown. The exact form of at least one protein or probe is not confirmed. Negatives hold for the conditions tested.
# Legend:
# Experiment in all cases: enzyme reaction in vitro
# Conditions in all cases: purified recombinant protein
# [1] = molecular target: T1, TtCsm6 (Thermus thermophilus) (UniProt Q53W17)
# T1 sequence (looked up, limits assumed): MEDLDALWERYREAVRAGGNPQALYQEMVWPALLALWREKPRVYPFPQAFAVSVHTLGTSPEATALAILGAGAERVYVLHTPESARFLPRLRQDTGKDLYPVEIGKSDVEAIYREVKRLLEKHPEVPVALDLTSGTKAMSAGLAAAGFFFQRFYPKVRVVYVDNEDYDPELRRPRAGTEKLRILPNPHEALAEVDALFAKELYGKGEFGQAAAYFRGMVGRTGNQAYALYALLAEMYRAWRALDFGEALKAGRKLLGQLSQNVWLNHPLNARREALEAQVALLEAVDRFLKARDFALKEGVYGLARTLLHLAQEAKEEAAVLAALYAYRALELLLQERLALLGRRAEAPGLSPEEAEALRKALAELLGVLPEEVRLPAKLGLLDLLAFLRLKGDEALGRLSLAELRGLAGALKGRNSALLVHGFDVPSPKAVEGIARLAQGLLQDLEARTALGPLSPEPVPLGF
# [2] = system: StCsm6 (Streptococcus thermophilus DGCC8004)
# [3] = system: StCsm6' (Streptococcus thermophilus DGCC8004)
# [4] = 0.5 uM cyclic oligoadenylates, 1 mM EDTA, label: 5'-33P
# [5] = 1 uM StCsm6 without cyclic oligoadenylates, purine dinucleotide preference, label: 5'-33P
# [6] = no dsRNA hydrolysis, label: 5'-33P
# [7] = GA preferred, with c(AMP)6 also other purine sites, especially AG, label: 5'-33P
# [8] = cyclic, 3'-5' linked, no RNase stimulation, only the motif is given
# [9] = no ssDNA hydrolysis, single-stranded DNA
sequence,measurement,setting,value
GGGCGGCAAAUUGAGGAUUUCGUAACUGUUUAAUUCUGUUCACUUAUUCCACCAACAAAAGGUGGCGA [RNA NS],activity on this sequence,"[1]; stimulated by c(AMP)4 only, 1 mM EDTA, label: 5'-33P",active
GGGUACCGAGCUCGAAUUGAAAUUCUAAACGCUAAAGAGGAAGAGGACAUGGUGAAUUCGUAAUCAUGGUCAUAGCUGUUUCCC [ssRNA NSa],activity on this sequence,[2]; [4],active
same,activity on this sequence,[3]; [4],active
GGGAAACAGCUAUGACCAUGAUUACGAAUUCACCAUGUCCUCUUCCUCUUUAGCGUUUAGAAUUUCAAUUCGAGCUCGGUACCC [ssRNA NSb],activity on this sequence,[2]; [4],active
same,activity on this sequence,[3]; [4],active
GGGAAACAGCAUAGCAAGUUAAAAUAAGGCUAGUCCGUUAUCAACUUGAAAAAGUGGCACCGAGUCGGUGCUUUUUUU [ssRNA NSc],activity on this sequence,[2]; [5],active
GGGUACCGAGCUCGAAUUGAAAUUCUAAACGCUAAAGAGGAAGAGGACAUGGUGAAUUCGUAAUCAUGGUCAUAGCUGUUUCCC / GGGAAACAGCUAUGACCAUGAUUACGAAUUCACCAUGUCCUCUUCCUCUUUAGCGUUUAGAAUUUCAAUUCGAGCUCGGUACCC [dsRNA NSa/NSb],activity on this sequence,[2]; [6],not active
same,activity on this sequence,[3]; [6],not active
GGGUUUCCCAACCAUCCAGCCUACCGGCCGUCCGACCUGCCUUCCCUUUCCC [ssRNA NSe],activity on this sequence,[2]; [7],active
same,activity on this sequence,[3]; [7],active
AAAAA [c(AMP)5],functional effect,"[1]; cyclic, 3'-5' linked, no RNase stimulation at 500 nM, only the motif is given",not active
same,functional effect,[2]; [8],not active
same,functional effect,[3]; [8],not active
AAATATAAGGTGGAATAAGTGAACAGAATTAAACAGTTACGAAAAAAAAAAA [ssDNA S3/2],activity on this sequence,[2]; [9],not active
same,activity on this sequence,[3]; [9],not active
GGGUAAAUCUUGCAGAAGCUACAAAGAUAAGGCUUCAUGCCGAAAUCAACACCCUGUCAUUUUAUGGCAGGGUGUUUUCG [ssRNA NSd],activity on this sequence,[2]; [5],active
